# Measurements published in PubChem BioAssay AID1487 (National Center for Advancing Translational Sciences (NCATS), 2009).
# The other results are listed elsewhere or left out. These are further read-outs of the screen, such as a control signal, another cell line or another target. No call is given for them. Most of these compounds were active or inconclusive in the main read-out, so they are no random draw. Potencies come from curve fits of mixed quality, noted in brackets.
# Assay: qHTS Assay for Modulators of Lamin A Splicing
# Settings: HeLa LMNA splicing GFP/RFP minigene ratio, 48 h
# Procedure, shortened: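 S3 HeLa stable clones carrying a lamin A-EGFP splicing minigene plus DsRed2 were seeded at 600 cells/well in Opti-MEM with 2% FBS, pin-dosed and incubated 48 h at 37°C. Acumen cytometry (488 nm) gave the GFP/RFP total-intensity ratio.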
# [1] = measured here: RFP viability control channel
# [2] = measured here: GFP splicing reporter channel
smiles,measurement,setting,value
Cc1ccc([N+](=O)[O-])cc1NC(=O)CCc1ccccc1,AC50,[1],"0.1 µM [falling, full curve, poor fit]"
Cc1ccc(-c2ccc(C(=O)Nc3cccc(F)c3)o2)c2ccccc12,AC50,[2],"15.8 µM [rising, single point]"
same,AC50,[1],"11.2 µM [rising, partial curve]"
COC1(OC)C(/C=C/c2ccc(Cl)cc2)C(C#N)(C#N)C1(OC)OC (centres undefined),AC50,[2],"10 µM [falling, partial curve, poor fit]"
same,AC50,[1],"2.51 µM [rising, partial curve]"
S=C1c2ccccc2CN1c1ccccc1,AC50,[2],"2.82 µM [rising, partial curve, poor fit]"
same,AC50,[1],"1.26 µM [rising, partial curve, poor fit]"
CCCCOc1ccc(N2C(=O)CC(N(O)c3ccccc3)C2=O)cc1 (centres undefined),AC50,[1],"17.8 µM [rising, single point]"
CC(C)=CCN1CCN(Cc2nc(-c3ccccc3)cs2)CC1CCO (centres undefined),AC50,[2],"0.0708 µM [rising, full curve, poor fit]"
O=C(/C=C/c1ccco1)NC(=S)Nc1ccccc1O,AC50,[1],"6.31 µM [rising, partial curve]"
S=C(NCc1ccc2[nH]c3c(c2c1)CCCC3)Nc1ccccc1,AC50,[1],"35.5 µM [rising, single point]"
COc1cc2nc(CN3C(=O)c4ccccc4C3=O)oc(=O)c2cc1OC,AC50,[1],"0.00447 µM [falling, full curve, poor fit]"
O=C(NNC1=C(C(=O)C(F)(F)F)CCC1)c1ccccc1Cl,AC50,[1],"31.6 µM [rising, single point]"
COc1ccc(CN(C2CCCCC2C)S(=O)(=O)c2ccc(S(=O)(=O)N(C)C)cc2)cc1OC (centres undefined),AC50,[2],"31.6 µM [rising, single point]"
O=C(NN=C(Cc1ccccc1)Cc1ccccc1)C1CC1,AC50,[1],"0.282 µM [falling, full curve, poor fit]"
CCN1CCC(N(Cc2cccc(OC)c2)C(=O)Nc2cccc(C(F)(F)F)c2)CC1,AC50,[2],"31.6 µM [falling, single point]"
CCN(CC)c1ccc(C(=O)NCc2ccc3c(c2)CCN3C(=O)c2ccccc2)cc1,AC50,[2],"20 µM [falling, partial curve, poor fit]"
Cc1ccc(-c2[nH]ncc2/C=N/n2c(COc3ccccc3)nc3ccccc3c2=O)cc1,AC50,[2],"17.8 µM [falling, partial curve]"
same,AC50,[1],"35.5 µM [falling, single point]"
O=C(Nc1nnc(C23CC4CC(CC(C4)C2)C3)s1)c1ccc(N2C(=O)CCC2=O)cc1,AC50,[1],"2 µM [rising, partial curve]"
O=C(O)c1cccc(N2C(=S)N=C(Nc3ccccc3)C23CCCCC3)c1,AC50,[1],"0.0355 µM [falling, full curve, poor fit]"
Cc1ccc(N2CCN(c3ccc(C)cc3)C2c2cccnc2)cc1,AC50,[2],"28.2 µM [rising, single point]"
O=C(CC1N=C2c3ccccc3N=C(SCc3ccc(Cl)cc3)N2C1=O)NCCc1ccccc1 (centres undefined),AC50,[2],"11.2 µM [falling, partial curve]"
same,AC50,[1],"14.1 µM [falling, partial curve]"
O=S(=O)(Nc1cccc(-c2nc3cccnc3s2)c1)c1ccc2c(c1)OCCO2,AC50,[1],"12.6 µM [rising, partial curve]"
CCc1ccc(NC(=O)CC2C(=O)NCCN2C(=S)Nc2ccccc2)cc1 (centres undefined),AC50,[2],"14.1 µM [rising, single point]"
same,AC50,[1],"35.5 µM [rising, single point]"
O=C1CCC(=O)N1c1cccc(OS(=O)(=O)c2ccccc2)c1,AC50,[2],"6.31 µM [falling, partial curve]"
CC(C)c1ccc(CCNC(=O)c2ccc([N+](=O)[O-])cc2)cc1,AC50,[1],"14.1 µM [rising, partial curve, poor fit]"
O=C(Cc1ccc(Cl)cc1)c1c[nH]c(C(=O)NCCCN2CCOCC2)c1,AC50,[2],"0.0501 µM [falling, full curve]"
CCN(CC)C(=O)CSc1ncnc2c1cnn2Cc1ccccc1,AC50,[2],"22.4 µM [rising, partial curve]"
same,AC50,[1],"35.5 µM [rising, single point]"
CCC1=Nc2cc(C(=O)NCc3ccco3)ccc2Sc2ccc(C)cc21,AC50,[1],"35.5 µM [falling, single point]"
COc1ccccc1/C=C/C(=O)NCC(=O)N/N=C/c1cc(Br)ccc1OC,AC50,[1],"10 µM [rising, partial curve, poor fit]"
COCc1cc(C)nc(SCc2nc3ccccc3c(=O)[nH]2)c1C#N,AC50,[2],"0.178 µM [falling, full curve, poor fit]"
same,AC50,[1],"1 µM [falling, partial curve]"
COc1ccc2c(c1)CCc1c(C(=O)N3CCCc4ccccc43)noc1-2,AC50,[1],"6.31 µM [rising, partial curve, poor fit]"
COc1cccc(CNC(=O)CN2C(=O)N(c3cc(C)ccc3C)S(=O)(=O)c3ccccc32)c1OC,AC50,[1],"0.355 µM [rising, full curve, poor fit]"
O=C(c1cn(-c2ccccc2)nc1-c1ccc(F)cc1)N1CCCCC1,AC50,[2],"28.2 µM [rising, partial curve, poor fit]"
CCCCOc1ccc(OC(=O)c2sc3ncn(Cc4cccc(F)c4)c(=O)c3c2C)cc1,AC50,[1],"0.02 µM [falling, full curve, poor fit]"
CCOc1ccccc1C1C2C(=O)N(c3ccccc3)C(=O)C2ON1c1ccccc1 (centres undefined),AC50,[1],"2.51 µM [falling, partial curve, poor fit]"
CCn1c(SCC(=O)Nc2cc(C)ccc2C)nc2c(c1=O)SC(C)C2 (centres undefined),AC50,[2],"5.62 µM [falling, partial curve, poor fit]"
same,AC50,[1],"5.62 µM [falling, single point]"
c1ccc(C2OC3c4cccc5cccc(c45)C3N2c2ccccc2)cc1 (centres undefined),AC50,[1],"35.5 µM [rising, single point]"
CC(=O)N1CCc2c(sc(NC(=O)c3ccc4c(c3)OCCO4)c2C#N)C1,AC50,[1],"2.82 µM [rising, partial curve]"
CCCCCC(=O)N/N=C(\C)c1ccccn1,AC50,[1],"6.31 µM [rising, full curve]"
COc1cccc(Nc2ncc3ncc(=O)n(C[C@H]4CCCO4)c3n2)c1,AC50,[2],"11.2 µM [falling, partial curve]"
same,AC50,[1],"11.2 µM [falling, partial curve]"
CN(C)/C=N/C(=S)Nc1ccccc1F,AC50,[2],"35.5 µM [rising, single point]"
O=[N+]([O-])c1ccc2cn[nH]c2c1,AC50,[2],"14.1 µM [rising, single point]"
same,AC50,[1],"14.1 µM [rising, partial curve, poor fit]"
O=CN1CCN(C(=O)COc2ccc(Cl)cc2Br)CC1,AC50,[2],"5.01 µM [rising, partial curve]"
same,AC50,[1],"5.01 µM [rising, partial curve, poor fit]"
CCc1ccc(C2=CC(c3cc(Br)ccc3F)n3ncnc3N2)cc1 (centres undefined),AC50,[1],"2.82 µM [rising, partial curve]"
Clc1nc(-c2ccccn2)nc2scc(-c3ccccc3)c12,AC50,[1],"2.51 µM [rising, partial curve]"
O=C(CSc1ncc(CO)n1Cc1ccccc1)Nc1nc2ccccc2s1,AC50,[2],"17.8 µM [falling, single point]"
same,AC50,[1],"12.6 µM [falling, partial curve, poor fit]"
COc1cc(CN(C(=O)COc2ccc(Br)cc2)c2ccccn2)cc(OC)c1OC,AC50,[2],"0.0708 µM [falling, full curve]"
same,AC50,[1],"0.141 µM [falling, full curve, poor fit]"
CN1CCN(C(c2ccccc2)c2ccccc2)CC1,AC50,[2],"0.000794 µM [falling, full curve, poor fit]"
N#CC1(C#N)[C@@H](C(=O)C23CC4CC(CC(C4)C2)C3)C12CCOCC2,AC50,[2],"2 µM [rising, single point]"
same,AC50,[1],"2.24 µM [rising, partial curve]"
CC1(C)C2CCC1(CS(=O)(=O)Nc1ccc(S(=O)(=O)NC3CCCCC3)cc1)C(=O)C2 (centres undefined),AC50,[1],"35.5 µM [rising, single point]"
CC(C(=O)Nc1ccccc1)c1ccc(-c2ccccc2)c(F)c1 (centres undefined),AC50,[1],"7.08 µM [rising, partial curve]"
CCCCCOC(=O)c1cc(=O)[nH]c2ccccc12,AC50,[2],"12.6 µM [falling, single point]"
same,AC50,[1],"11.2 µM [falling, partial curve, poor fit]"
Fc1ccc(-c2nn(-c3ccccc3)cc2CNCc2ccccc2)cc1,AC50,[2],"22.4 µM [falling, partial curve]"
same,AC50,[1],"25.1 µM [falling, partial curve]"
O=c1[nH]c(-c2ccc(F)cc2)nc2c1sc(=S)n2-c1ccccc1,AC50,[1],"12.6 µM [rising, partial curve]"
CC(=O)N(Cc1cc2cc(C)c(C)cc2n2nnnc12)CC1COCCO1 (centres undefined),AC50,[1],"0.282 µM [falling, full curve, poor fit]"
CN(C)CCCN(C(=O)COc1ccccc1)c1nc2c(Cl)cccc2s1,AC50,[2],"1.41 µM [rising, partial curve, poor fit]"
same,AC50,[1],"0.631 µM [rising, full curve, poor fit]"
CC(C)N(C(=O)NC(=O)NCC1CCCO1)S(C)(=O)=O (centres undefined),AC50,[1],"35.5 µM [falling, single point]"
CCOC(=O)/C(=C\C=C\c1ccccc1)NC(=O)c1ccccc1,AC50,[1],"22.4 µM [rising, partial curve, poor fit]"

# Some of the entries so far, tab-delimited:
smiles	measurement	setting	value
Cc1ccc(-c2ccc(C(=O)Nc3cccc(F)c3)o2)c2ccccc12	AC50	[2]	15.8 µM [rising, single point]
O=C(NNC1=C(C(=O)C(F)(F)F)CCC1)c1ccccc1Cl	AC50	[1]	31.6 µM [rising, single point]
CCN(CC)c1ccc(C(=O)NCc2ccc3c(c2)CCN3C(=O)c2ccccc2)cc1	AC50	[2]	20 µM [falling, partial curve, poor fit]
Cc1ccc(-c2[nH]ncc2/C=N/n2c(COc3ccccc3)nc3ccccc3c2=O)cc1	AC50	[2]	17.8 µM [falling, partial curve]
COc1ccccc1/C=C/C(=O)NCC(=O)N/N=C/c1cc(Br)ccc1OC	AC50	[1]	10 µM [rising, partial curve, poor fit]
COc1ccc2c(c1)CCc1c(C(=O)N3CCCc4ccccc43)noc1-2	AC50	[1]	6.31 µM [rising, partial curve, poor fit]
COc1cccc(CNC(=O)CN2C(=O)N(c3cc(C)ccc3C)S(=O)(=O)c3ccccc32)c1OC	AC50	[1]	0.355 µM [rising, full curve, poor fit]
CCOc1ccccc1C1C2C(=O)N(c3ccccc3)C(=O)C2ON1c1ccccc1 (centres undefined)	AC50	[1]	2.51 µM [falling, partial curve, poor fit]
CCn1c(SCC(=O)Nc2cc(C)ccc2C)nc2c(c1=O)SC(C)C2 (centres undefined)	AC50	[1]	5.62 µM [falling, single point]
O=CN1CCN(C(=O)COc2ccc(Cl)cc2Br)CC1	AC50	[2]	5.01 µM [rising, partial curve]
Clc1nc(-c2ccccn2)nc2scc(-c3ccccc3)c12	AC50	[1]	2.51 µM [rising, partial curve]
CCCCCOC(=O)c1cc(=O)[nH]c2ccccc12	AC50	[2]	12.6 µM [falling, single point]
Fc1ccc(-c2nn(-c3ccccc3)cc2CNCc2ccccc2)cc1	AC50	[1]	25.1 µM [falling, partial curve]
O=c1[nH]c(-c2ccc(F)cc2)nc2c1sc(=S)n2-c1ccccc1	AC50	[1]	12.6 µM [rising, partial curve]
